The values below come from patent US20250283871A1, “COMPOSITIONS AND METHODS FOR MODULATING THE INTERACTION BETWEEN SS18-SSX FUSION ONCOPROTEIN AND NUCLEOSOMES” (Dana-Farber Cancer Institute, Inc., priority 2020, published 2025).

In the data set the test system is BAF complex subunits and histone proteins. In words: Mass spectrometry proteomics of purified HA-SS18 WT and HA-SS18-SSX1 complexes (Tables 5A-5E). Details: species or system human. The following applies: HEK-293T.
[1] abbreviates: HA-SS18SSX1_CHR_peptides: proteins found in HA-SS18-SSX1 BAF complex purification from solubilized chromatin (CHR).
[2] abbreviates: HA-SS18SSX1 purification, NE (soluble nuclear extract) fraction, peptides per identified protein.
The mark [3] stands for this setting: HA-SS18WT_CHR_peptides: protein identified in HA-SS18 WT BAF complex purification from nuclease-treated solubilized chromatin (CHR).
Where [4] appears, read: HA-SS18WT_NE_peptides: proteins co-purified with HA-SS18 WT from nuclear extract (NE).

B1: PHC2 (protein, UniProt Q8IXK0 1-858, looked up)
Polyhomeotic-like protein 2: MENELPVPHTSSSACATSSTSGASSSSGCNNSSSGGSGRPTGPQISVYSGIPDRQTVQVIQQALHRQPSTAAQYLQQMYAAQQQHLMLQTAALQQQHLSSAQLQSLAAVQQASLVSNRQGSTSGSNVSAQAPAQSSSINLAASPAAAQLLNRAQSVNSAAASGIAQQAVLLGNTSSPALTASQAQMYLRAQMLIFTPTATVATVQPELGTGSPARPPTPAQVQNLTLRTQQTPAAAASGPTPTQPVLPSLALKPTPGGSQPLPTPAQSRNTAQASPAGAKPGIADSVMEPHKKGDGNSSVPGSMEGRAGLSRTVPAVAAHPLIAPAYAQLQPHQLLPQPSSKHLQPQFVIQQQPQPQQQQPPPQQSRPVLQAEPHPQLASVSPSVALQPSSEAHAMPLGPVTPALPLQCPTANLHKPGGSQQCHPPTPDTGPQNGHPEGVPHTPQRRFQHTSAVILQLQPASPPQQCVPDDWKEVAPGEKSVPETRSGPSPHQQAIVTAMPGGLPVPTSPNIQPSPAHETGQGIVHALTDLSSPGMTSGNGNSASSIAGTAPQNGENKPPQAIVKPQILTHVIEGFVIQEGAEPFPVGRSSLLVGNLKKKYAQGFLPEKLPQQDHTTTTDSEMEEPYLQESKEEGAPLKLKCELCGRVDFAYKFKRSKRFCSMACAKRYNVGCTKRVGLFHSDRSKLQKAGAATHNRRRASKASLPPLTKDTKKQPTGTVPLSVTAALQLTHSQEDSSRCSDNSSYEEPLSPISASSSTSRRRQGQRDLELPDMHMRDLVGMGHHFLPSEPTKWNVEDVYEFIRSLPGCQEIAEEFRAQEIDGQALLLLKEDHLMSAMNIKLGPALKIYARISMLKDS
B1: under setting [1], the “Total (peptides)” value worked out at 1 and the “Unique (peptides)” value came out at 1.

B2: STOML2 (protein, UniProt Q9UJZ1 29-356, looked up)
Stomatin-like protein 2, …: SSGLPRNTVVLFVPQQEAWVVERMGRFHRILEPGLNILIPVLDRIRYVQSLKEIVINVPEQSAVTLDNVTLQIDGVLYLRIMDPYKASYGVEDPEYAVTQLAQTTMRSELGKLSLDKVFRERESLNASIVDAINQAADCWGIRCLRYEIKDIHVPPRVKESMQMQVEAERRKRATVLESEGTRESAINVAEGKKQAQILASEAEKAEQINQAAGEASAVLAKAKAKAEAIRILAAALTQHNGDAAASLTVAEQYVSAFSKLAKDSNTILLPSNPGDVTSMVAQAMGVYGALTKAPVPGTPDSLSSGSSRDVQGTDASLDEELDRVKMS
On to B2, for which, under setting [1], the “Total (peptides)” value turned out to be 1 and the “Unique (peptides)” value was found to be 1. For the same molecule, under setting [2], the “Total (total peptides)” value was 4 and the “Unique (unique peptides)” value came to 4. Under setting [3], the “Total (total peptides)” value was determined as 1 and the “Unique (unique peptides)” value is reported as 1. Further, under setting [4], the “Total (peptides)” value is recorded as 2 and the “Unique (peptides)” value turned out to be 2.

B3: ZBTB38 (protein, UniProt Q8NAP3 1-1195, looked up)
Zinc finger and BTB …: MTVMSLSRDLKDDFHSDTVLSILNEQRIRGILCDVTIIVEDTKFKAHSNVLAASSLYFKNIFWSHTICISSHVLELDDLKAEVFTEILNYIYSSTVVVKRQETVTDLAAAGKKLGISFLEDLTDRNFSNSPGPYVFCITEKGVVKEEKNEKRHEEPAITNGPRITNAFSIIETENSNNMFSPLDLRASFKKVSDSMRTASLCLERTDVCHEAEPVRTLAEHSYAVSSVAEAYRSQPVREHDGSSPGNTGKENCEALAAKPKTCRKPKTFSIPQDSDSATENIPPPPVSNLEVNQERSPQPAAVLTRSKSPNNEGDVHFSREDENQSSDVPGPPAAEVPPLVYNCSCCSKAFDSSTLLSAHMQLHKPTQEPLVCKYCNKQFTTLNRLDRHEQICMRSSHMPIPGGNQRFLENYPTIGQNGGSFTGPEPLLSENRIGEFSSTGSTLPDTDHMVKFVNGQMLYSCVVCKRSYVTLSSLRRHANVHSWRRTYPCHYCNKVFALAEYRTRHEIWHTGERRYQCIFCLETFMTYYILKNHQKSFHAIDHRLSISKKTANGGLKPSVYPYKLYRLLPMKCKRAPYKSYRNSSYENARENSQMNESAPGTYVVQNPHSSELPTLNFQDTVNTLTNSPAIPLETSACQDIPTSANVQNAEGTKWGEEALKMDLDNNFYSTEVSVSSTENAVSSDLRAGDVPVLSLSNSSENAASVISYSGSAPSVIVHSSQFSSVIMHSNAIAAMTSSNHRAFSDPAVSQSLKDDSKPEPDKVGRFASRPKSIKEKKKTTSHTRGEIPEESNYVADPGGSLSKTTNIAEETSKIETYIAKPALPGTSTNSNVAPLCQITVKIGNEAIVKRHILGSKLFYKRGRRPKYQMQEEPLPQGNDPEPSGDSPLGLCQSECMEMSEVFDDASDQDSTDKPWRPYYNYKPKKKSRQLKKMRKVNWRKEHGNRSPSHKCKYPAELDCAVGKAPQDKPFEEEETKEMPKLQCELCDGDKAVGAGNQGRPHRHLTSRPYACELCAKQFQSPSTLKMHMRCHTGEKPYQCKTCGRCFSVQGNLQKHERIHLGLKEFVCQYCNKAFTLNETLKIHERIHTGEKRYHCQFCFQRFLYLSTKRNHEQRHIREHNGKGYACFQCPKICKTAAALGMHQKKHLFKSPSQQEKIGDVCHENSNPLENQHFIGSEDNDQKDNIQTGVENVVL
Regarding B3, under setting [1], the “Total (peptides)” value turned out to be 1 and the “Unique (peptides)” value is given as 1.

B4: KIF20A (protein, UniProt O95235 2-890, looked up)
Kinesin-like protein KIF20A: SQGILSPPAGLLSDDDVVVSPMFESTAADLGSVVRKNLLSDCSVVSTSLEDKQQVPSEDSMEKVKVYLRVRPLLPSELERQEDQGCVRIENVETLVLQAPKDSFALKSNERGIGQATHRFTFSQIFGPEVGQASFFNLTVKEMVKDVLKGQNWLIYTYGVTNSGKTHTIQGTIKDGGILPRSLALIFNSLQGQLHPTPDLKPLLSNEVIWLDSKQIRQEEMKKLSLLNGGLQEEELSTSLKRSVYIESRIGTSTSFDSGIAGLSSISQCTSSSQLDETSHRWAQPDTAPLPVPANIRFSIWISFFEIYNELLYDLLEPPSQQRKRQTLRLCEDQNGNPYVKDLNWIHVQDAEEAWKLLKVGRKNQSFASTHLNQNSSRSHSIFSIRILHLQGEGDIVPKISELSLCDLAGSERCKDQKSGERLKEAGNINTSLHTLGRCIAALRQNQQNRSKQNLVPFRDSKLTRVFQGFFTGRGRSCMIVNVNPCASTYDETLHVAKFSAIASQLVHAPPMQLGFPSLHSFIKEHSLQVSPSLEKGAKADTGLDDDIENEADISMYGKEELLQVVEAMKTLLLKERQEKLQLEMHLRDEICNEMVEQMQQREQWCSEHLDTQKELLEEMYEEKLNILKESLTSFYQEEIQERDEKIEELEALLQEARQQSVAHQQSGSELALRRSQRLAASASTQQLQEVKAKLQQCKAELNSTTEELHKYQKMLEPPPSAKPFTIDVDKKLEEGQKNIRLLRTELQKLGESLQSAERACCHSTGAGKLRQALTTCDDILIKQDQTLAELQNNMVLVKLDLRKKAACIAEQYHTVLKLQGQVSAKKRLGTNQENQQPNQQPPGKKPFLRNLLPRTPTCQSSTDCSPYARILRSRRSPLLKSGPFGKKY
Take B4: under setting [1], the “Total (peptides)” value worked out at 1 and the “Unique (peptides)” value is given as 1.

B5: CDY2A (protein, UniProt Q9Y6F7 1-541, looked up)
Testis-specific chromodomain …: MASQEFEVEAIVDKRQDKNGNTQYLVRWKGYDKQDDTWEPEQHLMNCEKCVHDFNRRQTEKQKKLTWTTTSRIFSNNARRRTSRSTKANYSKNSPKTPVTDKHHRSKNCKLFAASKNVRRKAASTLSDTKNMEIINSTIETLAPDSPFDHKKTVSGFQKLEKLDPIAADQQDTVVFKVTEGKLLRDPLSHPGAEQTGIQNKTQMHPLMSQMSGSVTASMATGSATRKGIVVLIDPLAANGTTDMHTSVPRVKGGQRNITDDSRGQPFIKKMHFTIRLTESAITYRDIVVKKEDGFTQIVLSTRSTEKNALNTEVIKEMVNALNSAAADDSKLVLFSAAGSVFCCGLDFGYFVRHLRNDRNTASLEMVDTIKNFVNTFIQFKKPIVVSVNGPAIGLGASILPLCDLVWANEKAWFQTPYTTFGQSPDGCSSITFPKMMGKASANEMLIAGRKLTAREACAKGLVSQVFLTGTFTQEVMIQIKELASYNAIVLEECKALVRCNIKLELEQANERECEVLRKIWSSAQGIESMLKYVENKIDEF
For the molecule B5, under setting [1], the “Total (peptides)” value came to 1 and the “Unique (peptides)” value was determined as 1.
